Laboratory results: PMC11532494 (Nature Communications, 2024)
Results are given in words; binding and its absence hold for the method and conditions named.

Legend:
[1] = biological target: T1, Legionella cherrii acetyl-polyamine aminohydrolase (Legionella cherrii); assay: SEC; both purified
T1 sequence: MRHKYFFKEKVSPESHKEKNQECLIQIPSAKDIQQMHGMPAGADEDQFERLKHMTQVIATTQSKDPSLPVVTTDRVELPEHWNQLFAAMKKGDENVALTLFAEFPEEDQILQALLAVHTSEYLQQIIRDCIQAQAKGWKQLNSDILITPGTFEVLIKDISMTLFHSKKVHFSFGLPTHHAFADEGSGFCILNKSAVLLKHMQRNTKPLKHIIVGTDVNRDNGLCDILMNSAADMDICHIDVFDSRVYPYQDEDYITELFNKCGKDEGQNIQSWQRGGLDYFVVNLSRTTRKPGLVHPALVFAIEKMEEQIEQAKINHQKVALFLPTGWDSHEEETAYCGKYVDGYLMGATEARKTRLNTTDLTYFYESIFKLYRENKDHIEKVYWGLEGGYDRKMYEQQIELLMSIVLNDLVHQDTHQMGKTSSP

[2] = biological target: T2, Legionella pneumophila acetyl-polyamine aminohydrolase (Legionella pneumophila); assay: SEC; both purified
T2 sequence: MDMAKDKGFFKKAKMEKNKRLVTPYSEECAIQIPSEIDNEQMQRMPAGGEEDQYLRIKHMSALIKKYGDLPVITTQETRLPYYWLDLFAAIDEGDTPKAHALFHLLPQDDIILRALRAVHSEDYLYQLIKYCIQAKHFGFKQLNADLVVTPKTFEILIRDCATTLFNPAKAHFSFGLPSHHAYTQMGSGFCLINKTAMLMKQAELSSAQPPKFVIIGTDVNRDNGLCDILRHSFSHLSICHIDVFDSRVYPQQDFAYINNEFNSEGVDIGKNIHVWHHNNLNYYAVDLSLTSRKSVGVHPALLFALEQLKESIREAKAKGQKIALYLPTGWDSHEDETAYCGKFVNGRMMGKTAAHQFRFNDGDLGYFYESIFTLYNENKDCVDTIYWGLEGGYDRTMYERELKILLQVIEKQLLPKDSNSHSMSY

Binder | binding [1] | binding [2]
Legionella cherrii acetyl-polyamine aminohydrolase (enzyme, UniProt A0A0W0SGS1 1-425) MRHKYFFKEKVSPESHKEKNQECLIQIPSAKDIQQMHGMPAGADEDQFERLKHMTQVIATTQSKDPSLPVVTTDRVELPEHWNQLFAAMKKGDENVALTLFAEFPEEDQILQALLAVHTSEYLQQIIRDCIQAQAKGWKQLNSDILITPGTFEVLIKDISMTLFHSKKVHFSFGLPTHHAFADEGSGFCILNKSAVLLKHMQRNTKPLKHIIVGTDVNRDNGLCDILMNSAADMDICHIDVFDSRVYPYQDEDYITELFNKCGKDEGQNIQSWQRGGLDYFVVNLSRTTRKPGLVHPALVFAIEKMEEQIEQAKINHQKVALFLPTGWDSHEEETAYCGKYVDGYLMGATEARKTRLNTTDLTYFYESIFKLYRENKDHIEKVYWGLEGGYDRKMYEQQIELLMSIVLNDLVHQDTHQMGKTSSP | no binding (tested: 5 mg/ml) | 
Legionella pneumophila acetyl-polyamine aminohydrolase (enzyme, UniProt A0A2S6EWV0 1-426) MDMAKDKGFFKKAKMEKNKRLVTPYSEECAIQIPSEIDNEQMQRMPAGGEEDQYLRIKHMSALIKKYGDLPVITTQETRLPYYWLDLFAAIDEGDTPKAHALFHLLPQDDIILRALRAVHSEDYLYQLIKYCIQAKHFGFKQLNADLVVTPKTFEILIRDCATTLFNPAKAHFSFGLPSHHAYTQMGSGFCLINKTAMLMKQAELSSAQPPKFVIIGTDVNRDNGLCDILRHSFSHLSICHIDVFDSRVYPQQDFAYINNEFNSEGVDIGKNIHVWHHNNLNYYAVDLSLTSRKSVGVHPALLFALEQLKESIREAKAKGQKIALYLPTGWDSHEDETAYCGKFVNGRMMGKTAAHQFRFNDGDLGYFYESIFTLYNENKDCVDTIYWGLEGGYDRTMYERELKILLQVIEKQLLPKDSNSHSMSY |  | no binding (tested: 5 mg/ml)
